# US20210162076
# Amino acid sequences for entries named in this document (tags omitted). A change or cut given only in a name is not applied to a line headed by its entry.
# UniProt Q9UPY3: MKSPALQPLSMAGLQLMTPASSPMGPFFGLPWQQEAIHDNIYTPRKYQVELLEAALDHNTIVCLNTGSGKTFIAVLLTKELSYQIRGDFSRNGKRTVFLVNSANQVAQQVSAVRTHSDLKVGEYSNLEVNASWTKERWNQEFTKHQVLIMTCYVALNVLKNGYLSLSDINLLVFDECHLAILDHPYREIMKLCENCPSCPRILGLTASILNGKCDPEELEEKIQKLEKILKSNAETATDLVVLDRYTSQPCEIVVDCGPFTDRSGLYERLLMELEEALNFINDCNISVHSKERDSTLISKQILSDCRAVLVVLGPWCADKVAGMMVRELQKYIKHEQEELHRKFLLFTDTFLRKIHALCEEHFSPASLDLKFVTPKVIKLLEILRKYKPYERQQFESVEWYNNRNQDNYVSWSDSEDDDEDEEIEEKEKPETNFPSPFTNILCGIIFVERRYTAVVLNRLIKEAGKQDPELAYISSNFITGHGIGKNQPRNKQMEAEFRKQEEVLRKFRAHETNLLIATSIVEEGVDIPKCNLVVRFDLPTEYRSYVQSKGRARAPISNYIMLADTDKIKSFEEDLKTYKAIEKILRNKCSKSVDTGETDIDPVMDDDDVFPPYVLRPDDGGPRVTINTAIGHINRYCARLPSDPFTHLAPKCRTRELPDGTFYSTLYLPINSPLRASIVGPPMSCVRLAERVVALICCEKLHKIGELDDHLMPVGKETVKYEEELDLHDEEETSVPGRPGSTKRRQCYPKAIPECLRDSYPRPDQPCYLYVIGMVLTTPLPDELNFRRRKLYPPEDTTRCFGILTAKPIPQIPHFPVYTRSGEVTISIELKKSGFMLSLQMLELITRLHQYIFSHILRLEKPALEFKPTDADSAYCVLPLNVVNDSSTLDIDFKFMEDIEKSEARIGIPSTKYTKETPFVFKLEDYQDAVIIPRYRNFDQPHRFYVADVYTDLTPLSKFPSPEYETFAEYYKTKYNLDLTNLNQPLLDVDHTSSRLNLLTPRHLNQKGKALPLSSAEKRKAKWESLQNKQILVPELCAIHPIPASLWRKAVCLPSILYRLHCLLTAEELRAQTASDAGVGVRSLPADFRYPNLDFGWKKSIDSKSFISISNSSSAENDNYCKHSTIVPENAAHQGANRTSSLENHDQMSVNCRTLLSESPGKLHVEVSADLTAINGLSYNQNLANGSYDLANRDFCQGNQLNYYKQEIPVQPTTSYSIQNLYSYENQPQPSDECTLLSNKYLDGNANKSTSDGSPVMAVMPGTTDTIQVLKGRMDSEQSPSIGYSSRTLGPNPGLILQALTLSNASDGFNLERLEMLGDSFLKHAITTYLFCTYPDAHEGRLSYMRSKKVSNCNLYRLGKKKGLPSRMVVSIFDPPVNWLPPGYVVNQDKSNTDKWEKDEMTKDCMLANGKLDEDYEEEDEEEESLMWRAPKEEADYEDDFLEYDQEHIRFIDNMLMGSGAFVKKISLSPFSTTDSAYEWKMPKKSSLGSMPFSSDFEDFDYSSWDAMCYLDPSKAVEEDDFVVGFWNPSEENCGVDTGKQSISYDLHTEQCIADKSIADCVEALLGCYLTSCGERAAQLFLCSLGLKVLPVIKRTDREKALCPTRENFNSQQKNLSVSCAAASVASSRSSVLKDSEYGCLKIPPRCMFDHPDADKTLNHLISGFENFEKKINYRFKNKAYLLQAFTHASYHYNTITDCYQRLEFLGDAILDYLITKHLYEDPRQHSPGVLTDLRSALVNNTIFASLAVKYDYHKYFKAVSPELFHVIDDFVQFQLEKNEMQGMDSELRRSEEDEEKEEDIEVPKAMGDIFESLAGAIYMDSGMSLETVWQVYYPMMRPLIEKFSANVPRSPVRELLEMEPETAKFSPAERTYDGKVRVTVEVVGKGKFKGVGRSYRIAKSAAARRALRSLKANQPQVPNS
# Experiments:
# HER2 (ERBB2) [1] = biological target: HER2 (ERBB2) (UniProt P04626); experiment: flow cytometry; conditions: 2'-F pyrimidines; RNA transcribed from listed DNA templates; BT474 all positive, SKBR3 two populations; 2 uM, 37 C, 1 h, tRNA and sperm DNA competitor; protein on the cell surface; protein details: endogenous on BT474 / SKBR3 breast cancer cells; label: Cy5; variant of HER2 aptamer (34 nt)
# Dicer (Homo sapiens) = Dicer (Homo sapiens) (UniProt Q9UPY3); experiment: enzyme reaction in vitro; conditions: 2'-F pyrimidines; Dicer 2 units, 4 ug RNA, 37 C 12 h; releases fragment of siRNA size; purified recombinant protein; protein details: recombinant, Genlantis; label: Cy5; variant of HER2 aptamer (34 nt)
# HER2 (ERBB2) [2] = biological target: HER2 (ERBB2) (UniProt P04626); experiment: activity in cells; conditions: 2'-F pyrimidines; no cytotoxicity to BT474/SKBR3; no tumor accumulation in BT474 xenograft; protein on the cell surface; protein details: endogenous on BT474 / SKBR3 breast cancer cells; dose not given here
sequence,measurement,setting,value
AGCCGCGAGGGGAGGGATAGGGTAGGGCGCGGCTAAAACCTTAGCAGTCTTATCTAATT / AGCCGCGAGGGGAGGGATAGGGTAGGGCGCGGCTAAAATTAGATAAGACTGCTAAGGCA [HEH (HER2 aptamer-EGFR siRNA-HER2 aptamer chimera)],binding result,HER2 (ERBB2) [1],binds
AGCCGCGAGGGGAGGGAUAGGGUAGGGCGCGGCUAAAACCUUAGCAGUCUUAUCUAAUU / GAAUUCCGCGUGUGCCAGCGAAAGUUGCGUAUGGGUCACAUCGCAGGCACAUGUCAUCUGGGCGGUCCGUUCGGGAUCCAAAAUUAGAUAAGACUGCUAAGGCA [H2EH3 (HER2 aptamer-EGFR siRNA-HER3 aptamer chimera)],activity on this sequence,Dicer (Homo sapiens),active
"GGAUCCCGACUGGCGAGAGCCAGGUAACGAAUGGAUCC [MG aptamer (malachite green, non-targeting control)]",functional effect of the aptamer,HER2 (ERBB2) [2],not active

# For part of these data: No signal at the amounts used counts as a negative. For part of these data: Results from cells or extracts need not show a direct contact.
